Values of other authors as cited in patent publication US20050034189A1, “Chitin oligosaccharide elicitor- and gibberellin-responsive genes in plants, and uses thereof” (National Institute of Agrobiological Sciences, priority 2001, published 2005).

System: α-amylase
Settings: cited from earlier work

Structure (SMILES): CN[C@@H]1C[C@H]2O[C@@](C)([C@@H]1OC)n1c3ccccc3c3c4c(c5c6ccccc6n2c5c31)C(=O)NC4 [staurosporine]
- inhibition of gibberellin induction of α-amylase: hardly inhibited
